Experimental data: article PMC10934892
Results are given in words; binding and its absence hold for the method and conditions named. In cells and extracts the contact can be indirect. Some entries that bind do so weakly or less than the wild type. For some assays here: Tags and fused reporters may be left off the sequences shown. Values belong to the molecule of their own block, whether it stands above or below them.

Protein sequences, listed by entry. Tags and fused reporters are not part of them. Residues count along the entry.
UniProt P11021, residues 19-654: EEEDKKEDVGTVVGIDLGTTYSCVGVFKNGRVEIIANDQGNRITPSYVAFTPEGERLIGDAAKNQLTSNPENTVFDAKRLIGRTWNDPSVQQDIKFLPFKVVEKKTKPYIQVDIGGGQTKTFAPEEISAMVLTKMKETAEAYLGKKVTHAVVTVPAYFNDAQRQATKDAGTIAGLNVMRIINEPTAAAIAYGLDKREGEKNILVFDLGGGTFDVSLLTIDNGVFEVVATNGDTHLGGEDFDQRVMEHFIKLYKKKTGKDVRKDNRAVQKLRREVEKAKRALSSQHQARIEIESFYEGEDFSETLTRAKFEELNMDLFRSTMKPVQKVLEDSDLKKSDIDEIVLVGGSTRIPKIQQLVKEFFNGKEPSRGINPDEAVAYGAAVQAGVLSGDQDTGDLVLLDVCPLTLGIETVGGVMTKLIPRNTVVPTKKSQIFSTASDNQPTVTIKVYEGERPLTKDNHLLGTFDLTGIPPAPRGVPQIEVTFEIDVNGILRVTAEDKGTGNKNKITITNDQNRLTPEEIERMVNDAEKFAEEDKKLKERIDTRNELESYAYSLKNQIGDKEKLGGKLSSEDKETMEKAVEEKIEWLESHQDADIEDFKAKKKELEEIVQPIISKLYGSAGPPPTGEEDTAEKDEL

Columns and labels:
[1] = biological target: T1, Flag-tagged overexpressed RRS1 (UniProt Q15050); test: co-IP; IP with anti-Flag antibodies from BC cells (BT-549, MDA-MB-231) infected with lentivirus for Flag-tagged RRS1; Western blot for GRP78
T1 sequence: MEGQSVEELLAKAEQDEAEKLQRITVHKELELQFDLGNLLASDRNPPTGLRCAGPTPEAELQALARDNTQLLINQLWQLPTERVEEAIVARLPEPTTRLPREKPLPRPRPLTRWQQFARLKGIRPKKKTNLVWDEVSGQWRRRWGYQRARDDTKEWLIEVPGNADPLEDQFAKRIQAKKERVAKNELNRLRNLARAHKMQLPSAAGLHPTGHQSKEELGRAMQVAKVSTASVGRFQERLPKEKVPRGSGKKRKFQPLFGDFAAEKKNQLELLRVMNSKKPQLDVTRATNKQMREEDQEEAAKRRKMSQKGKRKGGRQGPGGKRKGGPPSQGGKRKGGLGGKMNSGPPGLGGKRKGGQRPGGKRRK

[2] = biological target: Glucose-Regulated Protein 78 (GRP78) (human (endogenous in BT-549 and MDA-MB-231)) (UniProt P11021); test: co-IP; IP of cell lysates (BT-549, MDA-MB-231) with anti-GRP78 antibody and protein A/G beads overnight, IgG as control; Western blot for RRS1

- binding [1]: binds
Molecule: Glucose-Regulated Protein 78 (GRP78) (from UniProt P11021 19-654)

- binding [2]: binds
B1: Regulator of ribosome synthesis 1 (RRS1) (protein, UniProt Q15050 1-365)
chain: T1 sequence
